Assay results reported in the supplement of paper PMC10849652.
The other results are listed elsewhere or left out.

Chains of the proteins cited; added tags and fusions are not shown. Lines headed by an entry give the natural chain unless they say otherwise; changes in a name come on top.
UniProt O95197: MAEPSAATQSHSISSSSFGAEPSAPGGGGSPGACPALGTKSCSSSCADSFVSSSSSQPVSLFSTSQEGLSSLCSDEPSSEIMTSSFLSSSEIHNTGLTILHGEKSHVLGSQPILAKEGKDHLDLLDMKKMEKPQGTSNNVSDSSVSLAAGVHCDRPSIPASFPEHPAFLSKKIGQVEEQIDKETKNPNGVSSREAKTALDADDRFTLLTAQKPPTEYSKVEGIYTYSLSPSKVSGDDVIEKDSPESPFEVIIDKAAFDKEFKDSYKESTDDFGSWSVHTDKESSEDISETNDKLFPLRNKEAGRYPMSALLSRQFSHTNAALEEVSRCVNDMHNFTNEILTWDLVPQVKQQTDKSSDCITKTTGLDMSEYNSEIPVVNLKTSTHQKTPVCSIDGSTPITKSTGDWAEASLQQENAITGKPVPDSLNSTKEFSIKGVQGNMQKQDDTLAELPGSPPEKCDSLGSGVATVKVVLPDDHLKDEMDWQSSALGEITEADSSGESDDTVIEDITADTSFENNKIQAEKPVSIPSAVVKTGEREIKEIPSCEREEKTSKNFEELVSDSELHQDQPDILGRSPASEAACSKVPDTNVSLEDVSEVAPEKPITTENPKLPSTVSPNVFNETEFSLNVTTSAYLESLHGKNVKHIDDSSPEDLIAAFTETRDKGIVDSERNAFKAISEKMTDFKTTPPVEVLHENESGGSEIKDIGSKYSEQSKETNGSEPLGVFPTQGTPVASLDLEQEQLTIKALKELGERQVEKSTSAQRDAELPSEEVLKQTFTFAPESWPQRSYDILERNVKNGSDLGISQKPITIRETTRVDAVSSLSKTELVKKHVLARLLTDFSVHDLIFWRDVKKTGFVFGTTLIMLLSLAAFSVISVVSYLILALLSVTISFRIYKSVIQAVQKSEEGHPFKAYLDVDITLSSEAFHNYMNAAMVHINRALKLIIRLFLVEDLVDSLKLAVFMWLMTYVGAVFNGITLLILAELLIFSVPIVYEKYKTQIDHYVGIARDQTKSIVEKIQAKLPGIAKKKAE
UniProt Q9Y230, whole entry, looked up: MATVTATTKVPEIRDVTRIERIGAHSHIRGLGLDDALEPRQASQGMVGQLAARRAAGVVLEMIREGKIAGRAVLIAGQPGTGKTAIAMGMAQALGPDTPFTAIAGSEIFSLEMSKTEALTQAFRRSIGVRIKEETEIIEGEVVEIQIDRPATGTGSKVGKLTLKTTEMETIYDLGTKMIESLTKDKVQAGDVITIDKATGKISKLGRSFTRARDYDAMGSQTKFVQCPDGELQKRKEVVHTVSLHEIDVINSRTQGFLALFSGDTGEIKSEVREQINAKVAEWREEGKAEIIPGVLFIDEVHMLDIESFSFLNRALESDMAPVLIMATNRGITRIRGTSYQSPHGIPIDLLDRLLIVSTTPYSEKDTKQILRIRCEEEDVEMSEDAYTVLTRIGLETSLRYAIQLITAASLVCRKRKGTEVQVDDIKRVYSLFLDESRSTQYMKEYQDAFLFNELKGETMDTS
UniProt Q7L523, whole entry, looked up: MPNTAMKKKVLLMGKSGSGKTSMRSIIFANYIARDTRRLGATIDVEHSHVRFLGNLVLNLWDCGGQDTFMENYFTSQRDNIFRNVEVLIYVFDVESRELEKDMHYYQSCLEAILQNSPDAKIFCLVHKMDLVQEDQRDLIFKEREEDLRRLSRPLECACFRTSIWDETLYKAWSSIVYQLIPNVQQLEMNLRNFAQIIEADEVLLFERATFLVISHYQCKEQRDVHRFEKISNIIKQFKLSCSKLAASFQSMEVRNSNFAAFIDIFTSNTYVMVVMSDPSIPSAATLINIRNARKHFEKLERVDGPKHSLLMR
UniProt Q9H446: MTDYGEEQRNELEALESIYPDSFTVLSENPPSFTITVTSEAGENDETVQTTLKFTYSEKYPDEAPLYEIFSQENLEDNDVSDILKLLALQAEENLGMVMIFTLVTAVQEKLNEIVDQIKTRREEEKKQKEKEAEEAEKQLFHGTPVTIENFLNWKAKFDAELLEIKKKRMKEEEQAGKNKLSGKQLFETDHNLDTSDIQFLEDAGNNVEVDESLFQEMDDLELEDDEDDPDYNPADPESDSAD
UniProt Q6NW29: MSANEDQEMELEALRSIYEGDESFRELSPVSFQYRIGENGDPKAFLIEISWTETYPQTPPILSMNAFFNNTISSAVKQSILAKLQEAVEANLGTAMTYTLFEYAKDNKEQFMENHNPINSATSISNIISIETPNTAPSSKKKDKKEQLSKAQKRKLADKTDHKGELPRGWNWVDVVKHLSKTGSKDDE
UniProt Q96CM3: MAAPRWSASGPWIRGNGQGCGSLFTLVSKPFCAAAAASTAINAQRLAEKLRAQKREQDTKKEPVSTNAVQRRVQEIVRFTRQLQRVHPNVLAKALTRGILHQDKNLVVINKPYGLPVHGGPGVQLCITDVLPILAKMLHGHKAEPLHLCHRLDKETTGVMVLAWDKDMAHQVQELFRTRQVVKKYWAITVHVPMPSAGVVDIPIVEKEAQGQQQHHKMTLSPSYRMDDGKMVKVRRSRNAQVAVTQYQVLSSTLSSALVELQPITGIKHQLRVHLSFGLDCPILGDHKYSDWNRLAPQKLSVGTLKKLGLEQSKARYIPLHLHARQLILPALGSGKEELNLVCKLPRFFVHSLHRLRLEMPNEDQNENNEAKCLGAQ
UniProt Q9NZ71: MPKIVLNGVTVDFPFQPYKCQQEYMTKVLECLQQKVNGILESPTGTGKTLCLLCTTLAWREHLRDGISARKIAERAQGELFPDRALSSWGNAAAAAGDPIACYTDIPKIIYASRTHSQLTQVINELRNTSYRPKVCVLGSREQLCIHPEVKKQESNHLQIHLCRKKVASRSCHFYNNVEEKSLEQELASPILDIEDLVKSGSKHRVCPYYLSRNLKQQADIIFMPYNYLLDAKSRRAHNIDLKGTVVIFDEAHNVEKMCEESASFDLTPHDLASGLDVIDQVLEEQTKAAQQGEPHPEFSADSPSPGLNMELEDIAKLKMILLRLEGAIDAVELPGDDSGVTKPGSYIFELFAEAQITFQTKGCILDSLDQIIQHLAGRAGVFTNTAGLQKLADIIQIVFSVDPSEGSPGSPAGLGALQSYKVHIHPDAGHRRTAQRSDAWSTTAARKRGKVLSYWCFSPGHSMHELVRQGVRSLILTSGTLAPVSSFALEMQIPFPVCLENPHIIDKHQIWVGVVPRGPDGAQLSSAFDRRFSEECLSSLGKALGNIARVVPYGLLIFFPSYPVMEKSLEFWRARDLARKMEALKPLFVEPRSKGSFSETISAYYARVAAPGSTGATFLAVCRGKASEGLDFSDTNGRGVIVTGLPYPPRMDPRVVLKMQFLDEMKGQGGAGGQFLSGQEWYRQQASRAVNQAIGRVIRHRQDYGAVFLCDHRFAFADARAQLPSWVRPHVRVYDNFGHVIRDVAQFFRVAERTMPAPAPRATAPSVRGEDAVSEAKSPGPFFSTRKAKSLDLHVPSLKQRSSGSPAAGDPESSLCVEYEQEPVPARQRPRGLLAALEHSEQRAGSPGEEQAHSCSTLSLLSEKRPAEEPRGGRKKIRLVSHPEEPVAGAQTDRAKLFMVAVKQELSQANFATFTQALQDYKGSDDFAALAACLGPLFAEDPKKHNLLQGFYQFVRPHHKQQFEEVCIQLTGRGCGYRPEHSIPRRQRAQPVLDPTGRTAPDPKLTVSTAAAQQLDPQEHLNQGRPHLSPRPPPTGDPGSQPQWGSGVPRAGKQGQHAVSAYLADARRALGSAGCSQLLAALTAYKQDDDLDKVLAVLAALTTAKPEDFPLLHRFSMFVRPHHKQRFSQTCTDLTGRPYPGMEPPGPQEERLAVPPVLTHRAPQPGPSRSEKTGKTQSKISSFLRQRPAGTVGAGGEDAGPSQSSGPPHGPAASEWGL
UniProt Q9UJJ7: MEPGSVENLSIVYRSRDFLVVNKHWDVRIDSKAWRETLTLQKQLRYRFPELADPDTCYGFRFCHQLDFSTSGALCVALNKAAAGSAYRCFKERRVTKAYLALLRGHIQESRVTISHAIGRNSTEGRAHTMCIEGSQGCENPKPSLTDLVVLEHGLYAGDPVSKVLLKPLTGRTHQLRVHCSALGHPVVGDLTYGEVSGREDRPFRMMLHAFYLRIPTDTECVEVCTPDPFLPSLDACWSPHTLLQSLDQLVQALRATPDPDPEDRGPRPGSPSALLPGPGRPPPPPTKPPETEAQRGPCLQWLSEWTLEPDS
UniProt A6ZKI3: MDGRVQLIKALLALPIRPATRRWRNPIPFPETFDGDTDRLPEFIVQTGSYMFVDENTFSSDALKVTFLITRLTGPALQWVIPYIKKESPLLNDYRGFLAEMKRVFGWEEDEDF
UniProt P26447: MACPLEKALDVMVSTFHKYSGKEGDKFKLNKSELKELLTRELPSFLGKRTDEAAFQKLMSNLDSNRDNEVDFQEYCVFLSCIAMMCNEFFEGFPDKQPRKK
UniProt Q92681: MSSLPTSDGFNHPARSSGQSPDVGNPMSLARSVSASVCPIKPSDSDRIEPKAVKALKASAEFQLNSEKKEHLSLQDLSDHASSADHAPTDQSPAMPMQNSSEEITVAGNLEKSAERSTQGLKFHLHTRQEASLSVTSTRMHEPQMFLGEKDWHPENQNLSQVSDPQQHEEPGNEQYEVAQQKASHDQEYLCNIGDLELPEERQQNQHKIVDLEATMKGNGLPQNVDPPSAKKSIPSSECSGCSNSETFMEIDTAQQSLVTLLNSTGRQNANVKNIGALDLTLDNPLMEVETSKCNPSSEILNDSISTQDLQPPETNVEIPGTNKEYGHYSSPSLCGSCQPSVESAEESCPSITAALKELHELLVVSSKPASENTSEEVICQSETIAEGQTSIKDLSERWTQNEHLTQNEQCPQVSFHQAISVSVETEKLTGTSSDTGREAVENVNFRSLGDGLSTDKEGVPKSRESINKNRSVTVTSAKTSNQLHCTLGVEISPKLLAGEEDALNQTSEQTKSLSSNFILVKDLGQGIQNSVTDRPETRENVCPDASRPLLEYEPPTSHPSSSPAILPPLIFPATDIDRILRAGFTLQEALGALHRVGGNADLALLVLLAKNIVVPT
UniProt Q96EU6: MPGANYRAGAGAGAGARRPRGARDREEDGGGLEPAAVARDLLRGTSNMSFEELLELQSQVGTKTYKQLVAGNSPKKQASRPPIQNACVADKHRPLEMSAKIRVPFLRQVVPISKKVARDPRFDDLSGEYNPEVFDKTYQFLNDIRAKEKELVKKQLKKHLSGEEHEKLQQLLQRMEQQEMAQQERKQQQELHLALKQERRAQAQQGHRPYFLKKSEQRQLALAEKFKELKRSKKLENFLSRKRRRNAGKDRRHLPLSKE
UniProt P19793: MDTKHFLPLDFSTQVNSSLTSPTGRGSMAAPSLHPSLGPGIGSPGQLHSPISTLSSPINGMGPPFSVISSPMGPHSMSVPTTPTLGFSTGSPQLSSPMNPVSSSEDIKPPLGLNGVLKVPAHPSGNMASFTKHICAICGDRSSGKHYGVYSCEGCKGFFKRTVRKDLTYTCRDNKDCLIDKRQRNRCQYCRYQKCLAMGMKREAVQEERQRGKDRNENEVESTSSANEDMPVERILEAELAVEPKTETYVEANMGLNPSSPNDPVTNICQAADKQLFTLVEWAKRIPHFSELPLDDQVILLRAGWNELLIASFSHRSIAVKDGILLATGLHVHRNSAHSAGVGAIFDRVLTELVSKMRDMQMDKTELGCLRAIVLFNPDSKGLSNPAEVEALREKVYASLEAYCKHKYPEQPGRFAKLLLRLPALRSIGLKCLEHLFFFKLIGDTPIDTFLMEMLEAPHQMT
UniProt Q8WXA3: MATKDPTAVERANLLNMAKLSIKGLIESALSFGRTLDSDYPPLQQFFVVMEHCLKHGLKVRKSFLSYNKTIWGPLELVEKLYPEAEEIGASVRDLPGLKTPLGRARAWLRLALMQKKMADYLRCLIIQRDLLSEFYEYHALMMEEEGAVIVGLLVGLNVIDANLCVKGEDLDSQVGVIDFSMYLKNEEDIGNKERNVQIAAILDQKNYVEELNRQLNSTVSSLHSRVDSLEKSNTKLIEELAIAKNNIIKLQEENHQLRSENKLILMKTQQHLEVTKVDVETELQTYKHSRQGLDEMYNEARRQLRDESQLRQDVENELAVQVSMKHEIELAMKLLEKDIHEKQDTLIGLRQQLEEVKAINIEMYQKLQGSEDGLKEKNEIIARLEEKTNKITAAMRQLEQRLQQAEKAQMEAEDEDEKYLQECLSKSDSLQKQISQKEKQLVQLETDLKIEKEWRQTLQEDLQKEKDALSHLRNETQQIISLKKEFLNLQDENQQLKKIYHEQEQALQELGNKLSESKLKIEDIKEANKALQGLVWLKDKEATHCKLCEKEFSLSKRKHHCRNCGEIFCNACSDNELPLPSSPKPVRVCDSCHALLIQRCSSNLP
UniProt Q86WX3: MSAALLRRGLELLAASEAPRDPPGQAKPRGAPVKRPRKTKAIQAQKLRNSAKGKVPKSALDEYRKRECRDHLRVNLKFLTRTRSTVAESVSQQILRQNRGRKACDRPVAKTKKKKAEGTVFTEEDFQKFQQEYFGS
UniProt P23297: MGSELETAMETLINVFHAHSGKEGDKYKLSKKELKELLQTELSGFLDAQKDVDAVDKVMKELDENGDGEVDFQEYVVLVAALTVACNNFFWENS

Tests used:
Assay in all cases: log2 fold change, soluble protein after heating vs DMSO (PISA); higher = thermal stabilisation; K562 lysate, 10 uM; active = over 0.2 and 3.5 SD of the protein, either way, in both replicates (recomputed)
ibrutinib = compound: C=CC(=O)N1CCC[C@@H](n2nc(-c3ccc(Oc4ccccc4)cc3)c3c(N)ncnc32)C1 [ibrutinib]
In short: (§1)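 Thermal stability, expressed as log-two fold change relative to solvent controls, is given from duplicates. Crude K562 extract in PBS pH 7.4 with 1 mM MgCl2, at 1 mg/mL protein, was treated with 10 μM compound for 30 min and heated in aliquots for 3 min across 48°C-58°C. After pooling, adjustment to 0.5% NP-40 at 4°C and centrifugation at 21,000xg for 90 min, supernatant protein was measured by TMTpro 16plex LC-MS/MS with channel sums equalised.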

[1] = compound: CC(=O)c1cnc2ccc(-c3cc(Cl)c(O)c(Cl)c3)nc2c1N[C@H]1CC[C@H](CN(C)C)CC1
In short: as §1

ralimetinib = compound: CC(C)(C)Cn1c(N)nc2ccc(-c3[nH]c(C(C)(C)C)nc3-c3ccc(F)cc3)nc21 [ralimetinib]
In short: as §1

[2] = compound: CC(C)(O)CC(=O)NCCn1ccc2ncnc(Nc3ccc(Oc4cccc(C(F)(F)F)c4)c(Cl)c3)c21
In short: as §1

[3] = compound: CC(C)C1=C2N=C(C=C(N2N=C1)NCC3=CC=CC=C3)NCCCCCCN
In short: as §1

[4] = compound: CC1=C(C(CC(=O)N1)C2=CC=C(C=C2)C(F)(F)F)C(=O)NC3=C(C=C4C(=C3)C=NN4)F
In short: as §1

[5] = compound: CC1=C(C2=C(C=C1)C(=O)C3=CC=CC=C3N2CCCN)C
In short: as §1

[6] = compound: CC1=C(C=C(C=C1)NC(=O)C2=CC(=CC=C2)C(C)(C)C#N)NC3=CC4=C(C=C3)N=CN(C4=O)C
In short: as §1

[7] = compound: CC1=C(C=C(C=C1)NC(=O)C2=CC(=CC=C2)N(C)C)NC(=O)C3=CC=C(C=C3)O
In short: as §1

[8] = compound: CC1=CC=C(C=C1)SC2=C3C=C(SC3=CN=C2)C(=O)N
In short: as §1

Target | log2 fold change (ibrutinib) | log2 fold change [1] | log2 fold change (ralimetinib) | log2 fold change [2] | log2 fold change [3] | log2 fold change [4] | log2 fold change [5] | log2 fold change [6] | log2 fold change [7] | log2 fold change [8]
S100A11 (UniProt P31949) | inactive: -0.011 | inactive: -0.049 | inactive: -0.009 | inactive: -0.017 | inactive: -0.02 | inactive: -0.024 | inactive: 0.003 | inactive: 0.058 | inactive: 0.028 | inactive: 0.037
RSPRY1 (UniProt Q96DX4) | inactive: -0.052 | inactive: 0.005 | inactive: 0.029 | inactive: -0.036 | inactive: 0.042 | inactive: 0.118 | inactive: -0.022 | inactive: 0.012 | inactive: -0.017 | inactive: 0.009
RTN3 isoform 5 (UniProt O95197) | inactive: -0.16 | inactive: 0.025 | inactive: 0.02 | inactive: -0.006 | inactive: 0.009 | inactive: 0.091 | inactive: 0.046 | inactive: 0.006 | inactive: 0 | inactive: 0.014
RUVBL2 (UniProt Q9Y230) | inactive: 0.005 | inactive: -0.013 | inactive: -0.013 | inactive: -0.022 | inactive: -0.013 | inactive: -0.034 | inactive: 0.003 | inactive: 0.017 | inactive: -0.009 | inactive: 0.015
RPRD2 (UniProt Q5VT52) | inactive: -0.028 | inactive: 0.03 | inactive: 0.004 | inactive: -0.096 | inactive: 0.057 | inactive: 0.032 | inactive: 0 | inactive: 0 | inactive: 0.066 | inactive: 0.035
RRAGA (UniProt Q7L523) | inactive: -0.114 | inactive: 0.008 | inactive: -0.112 | inactive: -0.524 | inactive: 0.006 | inactive: 0.005 | inactive: -0.089 | inactive: 0.079 | inactive: 0.343 | inactive: -0.113
RTN3 (UniProt O95197) | inactive: -0.009 | inactive: 0.013 | inactive: 0.012 | inactive: -0.034 | inactive: -0.028 | inactive: 0.001 | inactive: -0.051 | inactive: -0.033 | inactive: 0.024 | inactive: -0.007
RWDD1 (UniProt Q9H446) | inactive: 0.013 | inactive: 0.001 | inactive: 0.011 | inactive: -0.023 | inactive: -0.036 | inactive: 0.013 | inactive: -0.015 | inactive: -0.041 | inactive: -0.042 | inactive: -0.011
RWDD4 (UniProt Q6NW29) | inactive: -0.032 | inactive: 0.015 | inactive: -0.022 | inactive: -0.013 | inactive: -0.017 | inactive: 0.047 | inactive: -0.006 | inactive: -0.028 | inactive: 0.03 | inactive: 0.011
RSL24D1 (UniProt Q9UHA3) |  | inactive: -0.057 | inactive: -0.055 | inactive: -0.009 | inactive: -0.123 | inactive: -0.033 | inactive: -0.002 | inactive: 0.101 | inactive: -0.021 | inactive: 0.03
RTL8A (UniProt Q9BWD3) |  |  |  |  |  |  |  | inactive: -0.101 |  | 
RPUSD4 (UniProt Q96CM3) | inactive: 0.059 |  | inactive: -0.059 | inactive: -0.036 | inactive: 0.055 | inactive: -0.061 | inactive: -0.184 | inactive: -0.032 | inactive: 0.064 | 
RUSC2 (UniProt Q8N2Y8) | inactive: 0.051 |  | inactive: 0.008 | inactive: 0.041 | inactive: -0.063 | inactive: 0.111 | inactive: -0.032 |  | inactive: -0.216 | 
RTN4R (UniProt Q9BZR6) |  |  |  |  | inactive: 0.038 |  |  |  |  | 
RTEL1 isoform 2 (UniProt Q9NZ71) |  |  |  |  |  | inactive: 0.102 | inactive: 0.034 |  |  | 
RPS19 (UniProt M0R2L9) |  |  | inactive: -0.16 | inactive: 0.115 | inactive: 0.051 |  | inactive: 0.136 | inactive: -0.035 | inactive: 0.012 | 
RPSA (UniProt F8WD59) |  |  |  |  |  | inactive: 0.069 | inactive: 0.043 |  |  | 

Target | log2 fold change (ibrutinib) | log2 fold change [1] | log2 fold change (ralimetinib) | log2 fold change [2] | log2 fold change [3] | log2 fold change [4] | log2 fold change [5] | log2 fold change [6] | log2 fold change [7] | log2 fold change [8]
RRBP1 isoform 3 (UniProt Q9P2E9) | inactive: -0.067 |  | inactive: -0.015 | inactive: 0.029 | inactive: 0.014 |  | inactive: 0.046 | inactive: -0.004 | inactive: -0.027 | 
RWDD3 (UniProt Q9Y3V2) |  |  | inactive: 0.058 | inactive: 0.128 |  |  | inactive: 0.326 | inactive: -0.139 | inactive: -0.08 | 
RPS6KA5 (UniProt O75582) |  | inactive: 0.173 | inactive: -0.02 | inactive: -0.055 | inactive: -0.027 | inactive: 0.011 | inactive: -0.04 | active: -0.441 | inactive: 0.004 | inactive: 0.005
RPS3 (UniProt E9PJN9) |  |  | inactive: 0.137 | inactive: -0.138 |  |  |  | inactive: -0.029 | inactive: 0.056 | 
RPUSD1 (UniProt Q9UJJ7) |  |  | inactive: -0.103 | inactive: -0.185 |  |  | inactive: 0 |  | inactive: 0.136 | 
RTL8C (UniProt A6ZKI3) |  |  | inactive: -0.051 | inactive: -0.064 | inactive: 0.034 | inactive: 0.018 | inactive: -0.005 | inactive: -0.066 | inactive: -0.045 | 
S100A4 (UniProt P26447) |  | inactive: 0.037 | inactive: -0.039 | inactive: -0.267 | inactive: 0.121 | inactive: 0.488 | inactive: -0.004 | inactive: 0.596 | inactive: -0.103 | inactive: 0.079
RSC1A1 (UniProt Q92681) | inactive: -0.07 |  |  |  |  | inactive: -0.209 | inactive: -0.441 | inactive: -0.083 |  | 
RRP36 (UniProt Q96EU6) |  | inactive: 0.014 | inactive: 0.011 | inactive: 0.016 | inactive: 0.082 |  | inactive: -0.067 | inactive: 0.108 | inactive: -0.027 | inactive: 0.07
S100A7A (UniProt Q86SG5) |  |  |  |  | inactive: -0.037 |  |  | inactive: 0.301 |  | 
RXRA (UniProt P19793) |  | inactive: -0.028 | inactive: -0.033 | inactive: 0.087 | inactive: 0.066 | inactive: 0.059 | inactive: 0.063 | inactive: -0.02 | inactive: -0.036 | inactive: 0
RUNDC1 (UniProt Q96C34) | inactive: -0.036 |  | inactive: 0.217 | inactive: 0.086 | inactive: 0.05 |  | inactive: -0.099 | inactive: -0.017 | inactive: -0.256 | 
RUFY2 isoform 1 (UniProt Q8WXA3) | inactive: 0.068 |  | inactive: -0.031 | inactive: 0.005 |  | inactive: -0.118 |  | inactive: -0.101 | inactive: -0.033 | 
RPS19BP1 (UniProt Q86WX3) |  | inactive: 0.191 |  |  |  |  |  | inactive: 0.205 |  | inactive: 0.086
S100A1 (UniProt P23297) |  | inactive: 0.005 | inactive: 0.001 | inactive: -0.049 | inactive: 0.024 | inactive: 0.274 | inactive: 0.076 | inactive: -0.022 | inactive: -0.009 | inactive: -0.023
RPS15, A0A0B4J2B4 |  | inactive: -0.046 |  |  |  | inactive: -0.073 |  |  |  | inactive: 0.132

Reformatted as tab-separated lines: entries from further up.
Target	log2 fold change (ibrutinib)	log2 fold change [1]	log2 fold change (ralimetinib)	log2 fold change [2]	log2 fold change [3]	log2 fold change [4]	log2 fold change [5]	log2 fold change [6]	log2 fold change [7]	log2 fold change [8]
RTN4R (UniProt Q9BZR6)					inactive: 0.038					
RTEL1 isoform 2 (UniProt Q9NZ71)						inactive: 0.102	inactive: 0.034			
RPS19 (UniProt M0R2L9)			inactive: -0.16	inactive: 0.115	inactive: 0.051		inactive: 0.136	inactive: -0.035	inactive: 0.012	
RPSA (UniProt F8WD59)						inactive: 0.069	inactive: 0.043			
RRBP1 isoform 3 (UniProt Q9P2E9)	inactive: -0.067		inactive: -0.015	inactive: 0.029	inactive: 0.014		inactive: 0.046	inactive: -0.004	inactive: -0.027	
RWDD3 (UniProt Q9Y3V2)			inactive: 0.058	inactive: 0.128			inactive: 0.326	inactive: -0.139	inactive: -0.08	
